# According to PMC10763615 (RSC Chemical Biology, 2023):
# Where a sequence shows no end group, the ends are not given. HELM strings list residues between dots; [ac] is acetyl, [am] amide, other brackets name non-standard units.
# Assays:
# [1] = general procedure: Fmoc solid-phase peptide synthesis; Fmoc-PAL AM resin (Novabiochem) pre-loaded with GSGSDYKDDDDK-NH2; DIC / Oxyma / collidine; conditions: whole synthesis, analytical HPLC/UPLC
# [2] = peptide made by a vendor (Fmoc solid-phase peptide synthesis; Fmoc-PAL AM resin (Novabiochem) pre-loaded with GSGSDYKDDDDK-NH2; DIC / Oxyma / collidine); conditions: whole synthesis, analytical HPLC/UPLC
# [3] = one disulfide bridge, sequence written open
substance,measurement,setting,value
"PEPTIDE1{[ac].M.C.E.S.D.A.Y.R.W.K.L.W.W.V.C.G.S.G.S.D.Y.K.D.D.D.D.K.[am]}$PEPTIDE1,PEPTIDE1,3:R3-16:R3$$$V2.0",crude HPLC purity,[1],59.42%
same,final HPLC purity,[2],86.50%
"PEPTIDE1{[ac].M.C.Y.H.R.P.P.N.S.K.I.W.R.K.C.G.S.G.S.D.Y.K.D.D.D.D.K.[am]}$PEPTIDE1,PEPTIDE1,3:R3-16:R3$$$V2.0",crude HPLC purity,[1],71.65%
same,final HPLC purity,[2],88.36%
MCKHLYYYLLWKKC,crude HPLC purity,[1]; [3],47.42%
same,final HPLC purity,[2]; [3],88.75%
